Values from PubChem BioAssay AID1224826 (NIAID, 2016).
Aim: 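Knock-downs that raise or lower Tnf reporter signal after endotoxin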 (primary screen). Cells: RAW264.7 G9 macrophages from mouse bearing reporters for p65 (GFP) and the Tnf promoter (mCherry). Reagent: siRNA pool against mouse genes, 100 nM. Time to read-out: 16 h of LPS stimulation, after 2 days of siRNA transfection. Treatment: bacterial lipopolysaccharide (Salmonella minnesota R595), 10 ng/ml. Measured: 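Nuclear mCherry signal of the Tnf promoter reporter measured by imaging after background removal, scaled to each plate median and turned into robust z-scores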. Reading the numbers: Tnf reporter robust z-score: higher = stronger Tnf promoter reporter signal after LPS. Rule for the call: 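Called active when robust z-score is at most -1.3, matching the median of the Tlr4 knock-down control, or over 3; control wells and wells with under 50 cells never active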. Meaning of the calls: active = Tnf reporter clearly lowered or raised; inactive = no clear change in Tnf reporter.
The whole screen tested about 17,000 reagents; shown is a part drawn at random. About 1,110 of them (6.6%) were called active. 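Active means lowered or raised reporter signal; replicate intensities are raw and not normalised per plate.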 Unmarked entries are inactive. Not all columns of the deposit are shown. No sequences are given here.

Target gene | Tnf reporter robust z-score | fewer than 50 cells in well
Pank2 (GeneID 74450) | -0.27 | enough cells in well
Cfap20dc (GeneID 74430) | – | fewer than 50 cells per well; well left out of calls
Slc30a3 (GeneID 22784) | 0.66 | enough cells in well
Acsl6 (GeneID 216739) | 1.42 | enough cells in well
Afp (GeneID 11576) | -1.24 | enough cells in well
Abcc5 (GeneID 27416) | -1.14 | enough cells in well
Fbxo25 (GeneID 66822) | -0.01 | enough cells in well
Cav2 (GeneID 12390) | -0.04 | enough cells in well
Taar2 (GeneID 209512) | 0.1 | enough cells in well
Gpr161 (GeneID 240888) | -0.73 | enough cells in well
Gpr84 (GeneID 80910) | -0.47 | enough cells in well
Daam2 (GeneID 76441) | 0.1 | enough cells in well
Pkd1l3 (GeneID 244646) | -1.04 | enough cells in well
Psap (GeneID 19156) | -0.02 | enough cells in well
Rnf130 (GeneID 59044) | -1.08 | enough cells in well
Slc4a4 (GeneID 54403) | 0.47 | enough cells in well
Foxh1 (GeneID 14106) | 0.7 | enough cells in well
Tnfrsf18 (GeneID 21936) | -0.37 | enough cells in well
Pomt1 (GeneID 99011) | -0.79 | enough cells in well
Ciz1 (GeneID 68379) | -1.2 | enough cells in well
Cd276 (GeneID 102657) | -0.94 | enough cells in well
Mcm8 (GeneID 66634) | 3.18 (active) | enough cells in well
Idh3b (GeneID 170718) | 0.07 | enough cells in well
Npbwr1 (GeneID 226304) | -0.11 | enough cells in well
Syf2 (GeneID 68592) | 1.21 | enough cells in well
Zfp609 (GeneID 214812) | -0.34 | enough cells in well
Slfn5 (GeneID 327978) | – | fewer than 50 cells per well; well left out of calls
Slc7a10 (GeneID 53896) | -1.35 (active) | enough cells in well
Cacng4 (GeneID 54377) | -1.09 | enough cells in well
Otud7a (GeneID 170711) | -1.36 (active) | enough cells in well
Ints5 (GeneID 109077) | 0.55 | enough cells in well
Rab10os (GeneID 74173) | 0.84 | enough cells in well
C730014E05Rik (GeneID 105246089) | 0.72 | enough cells in well
Siah1a (GeneID 20437) | -0.1 | enough cells in well
Mrps7 (GeneID 50529) | -0.52 | enough cells in well
Itgae (GeneID 16407) | 0.08 | enough cells in well
Cox7a1 (GeneID 12865) | -0.91 | enough cells in well
Il13ra2 (GeneID 16165) | -0.52 | enough cells in well
Or10ag58 (GeneID 259030) | -0.41 | enough cells in well
4930451E10Rik (GeneID 78111) | – | fewer than 50 cells per well; well left out of calls
Arih1 (GeneID 23806) | 0.87 | enough cells in well
Hjurp (GeneID 381280) | -0.9 | enough cells in well
Ugt2b37 (GeneID 112417) | -0.46 | enough cells in well
Cox8a (GeneID 12868) | -0.15 | enough cells in well
Coa8 (GeneID 68020) | 2.47 | enough cells in well
Eif5b (GeneID 226982) | -0.68 | enough cells in well
Cpeb2 (GeneID 231207) | 0.83 | enough cells in well
Cdh24 (GeneID 239096) | 0.75 | enough cells in well
Slc9d1 (GeneID 234076) | -0.43 | enough cells in well
Ppp2r3c (GeneID 59032) | 0.09 | enough cells in well
Nopchap1 (GeneID 28109) | -0.04 | enough cells in well
Rnf14 (GeneID 56736) | -0.74 | enough cells in well
Sod2 (GeneID 20656) | 0.51 | enough cells in well
Ccnc (GeneID 51813) | -0.6 | enough cells in well
Pde10a (GeneID 23984) | 0.27 | enough cells in well
Tekt1 (GeneID 21689) | – | fewer than 50 cells per well; well left out of calls
Abcg1 (GeneID 11307) | 1.54 | enough cells in well
Tprkb (GeneID 69786) | – | fewer than 50 cells per well; well left out of calls

Reformatted: entries from further up.
Target gene,Tnf reporter robust z-score,fewer than 50 cells in well
Cpeb2 (GeneID 231207),0.83,enough cells in well
Cdh24 (GeneID 239096),0.75,enough cells in well
Slc9d1 (GeneID 234076),-0.43,enough cells in well
Ppp2r3c (GeneID 59032),0.09,enough cells in well
Nopchap1 (GeneID 28109),-0.04,enough cells in well
Rnf14 (GeneID 56736),-0.74,enough cells in well
